42 sequences from paper PMC7819943, “Rice protein-binding microarrays: a tool to detect cis-acting elements near promoter regions in rice” can be followed below.

Amino acid sequences for entries named in this document (tags omitted).
UniProt Q0JBA9, entry or part of it: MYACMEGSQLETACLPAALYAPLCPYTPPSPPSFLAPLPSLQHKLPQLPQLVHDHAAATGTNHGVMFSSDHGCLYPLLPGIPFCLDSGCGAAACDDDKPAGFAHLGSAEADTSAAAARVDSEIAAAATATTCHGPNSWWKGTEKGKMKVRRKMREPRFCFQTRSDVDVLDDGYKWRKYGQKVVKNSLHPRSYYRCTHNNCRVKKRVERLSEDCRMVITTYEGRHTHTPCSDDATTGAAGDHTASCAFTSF

The other results are listed elsewhere or left out.

The test concerns the target OsWRKY34 (Oryza sativa, UniProt Q0JBA9 1-250). Nature of the test: protein-binding microarray (RPBM); PBS, 2% BSA, 51.3 ng/ul salmon testes DNA, 50 uM zinc acetate, 200 nM TF, 25 C, 1 h; high values mean tight binding. Conditions: protein: recombinant; tags: N-terminal polyhistidine and DsRed monomer fusion (pET32a); label: CyDye5-dUTP incorporated in the synthesized complementary strand; 3' TTTTT single-stranded linker to array surface; dsDNA, one strand shown. The method, boiled down:
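Transcription factors were made in E. coli BL21-CodonPlus as N-terminal fusions to a polyhistidine tag and DsRed, then purified on Ni–NTA. After primer extension with Cy5-dUTP and blocking with 2% BSA, a custom Agilent array was exposed for 1 h at 25 °C to 200 nM protein in PBS, 2% BSA, salmon testes DNA and 50 µM zinc acetate. Washed arrays were scanned on an Axon 4000B, and the binding signal is per-feature fluorescence intensity in arbitrary units.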
Take “CTCGGACGCTTTCTCGCCGCTGCTCACCTTCCGTTCCCTCCGGAGTCACCTAGTGCAG”: the binding signal was 8860 fluorescence intensity (a.u.).
As to “ATAAAGTTATGGCCAATTTTGTGTTCTATATGCTATAATACGGAGTCACCTAGTGCAG”, the binding signal is 9740 fluorescence intensity (a.u.).
As to “TCCTGGTTTGCGCCGAAAGACTGCAATTTTCTTGAGTTCTCGGAGTCACCTAGTGCAG”, the binding signal was 8150 fluorescence intensity (a.u.).
For “TTGTACTGTTGTGTCATCGCGGTCCCTAAACTCGCAAATTCGGAGTCACCTAGTGCAG”, the binding signal is 9820 fluorescence intensity (a.u.).
“TCCTACGCCACCATTTCTTGCAATCTTGCAGCTTTTCATCCGGAGTCACCTAGTGCAG”: the binding signal was 12800 fluorescence intensity (a.u.).
Consider “AATGTTTGACGCCGTTGACTTTTTTAAAAATGTTTGGCCGCGGAGTCACCTAGTGCAG”, for which the binding signal was 29800 fluorescence intensity (a.u.).
In the case of “CCATCTGAAGCCGTGCGCCCGTGCCAACGTGCCTGCCTACCGGAGTCACCTAGTGCAG” it was 8480 fluorescence intensity (a.u.); in that of “TTCCGCCGCCGCCGATTCCGTCTCAGCCGTCGATTCCGCCCGGAGTCACCTAGTGCAG”, 9630 fluorescence intensity (a.u.); in that of “TGTGGTTGACTGGCGCGTGGGTAGGTGGGGCCCAGGTGTCCGGAGTCACCTAGTGCAG”, 10100 fluorescence intensity (a.u.).
“TGATGAGTTGGGCCCTCGTTTTGTGGATTGGTGGGGAACACGGAGTCACCTAGTGCAG”: the binding signal is 8670 fluorescence intensity (a.u.).
For the sequence “TCTTGGCTGGTTGGTCTTGGTCTTGTGGTGCCTTTTTCCTCGGAGTCACCTAGTGCAG”, the binding signal was 14400 fluorescence intensity (a.u.).
In the case of “GATTAACCAGTTAGTACTATTGGTCGACCGTTAATTAATACGGAGTCACCTAGTGCAG” it was 8370 fluorescence intensity (a.u.); in that of “ATCCTGATCAGATTCTGAACTCCTTTTCTCTCTGCGCCCACGGAGTCACCTAGTGCAG”, 8480 fluorescence intensity (a.u.); in that of “TCTTATCCATTCGCGCCGTGTATTACTAAGTGATTGTTTACGGAGTCACCTAGTGCAG”, 8380 fluorescence intensity (a.u.).
“CTACATTCATCTTCTCCATTTCTCTTTTGTTTATTTGTTTCGGAGTCACCTAGTGCAG”: the binding signal is 9170 fluorescence intensity (a.u.).
In the case of “GTGGGTGGTTGGTGGTGGTGGTGGTGGTGGTGATCTTTGGCGGAGTCACCTAGTGCAG” it was 23900 fluorescence intensity (a.u.); in that of “TGTTTTCATGTTCCCTTCTATGTTCAATTTGATTCTTTTTCGGAGTCACCTAGTGCAG”, 9000 fluorescence intensity (a.u.).
On to “TCCTCCTCGCCTCGCGCTCCTCGTCCCTTCTCTCGTCCCACGGAGTCACCTAGTGCAG”, for which the binding signal is 9460 fluorescence intensity (a.u.).
Consider “GTTGTATGTCCAGATTCATAATATTATAAAATATCTTATTCGGAGTCACCTAGTGCAG”, for which the binding signal was 9710 fluorescence intensity (a.u.).
In the case of “TCGGTTGGTTGGGAATTTCCATGACTATTTTCACCTATAACGGAGTCACCTAGTGCAG” it was 8650 fluorescence intensity (a.u.); in that of “TTGTGGTTGGTTGTATCGTGATCCTGAGTGTGAAAAAACACGGAGTCACCTAGTGCAG”, 8050 fluorescence intensity (a.u.); in that of “GTGTGTATGACAGGTTGATGTGATAGAAAAGGACTAAAGTCGGAGTCACCTAGTGCAG”, 8110 fluorescence intensity (a.u.).
To “AGAGATAGATAGTTGAAATTGTTTTTTTTCTAGGGAGGGGCGGAGTCACCTAGTGCAG” belongs 12600 fluorescence intensity (a.u.); to “GCATCGCCCCGCCCTGACCACTTCACCTGCCTCTCCATATCGGAGTCACCTAGTGCAG”, 9780 fluorescence intensity (a.u.).
For “AGTAGGTGTGTCCTTTACATTTGCTAGTCTCCACTTTCCGCGGAGTCACCTAGTGCAG”, the binding signal is 11200 fluorescence intensity (a.u.).
To “CTAACATTCCCTATGCGGAAACACACACATTCATGCACACCGGAGTCACCTAGTGCAG” belongs 8860 fluorescence intensity (a.u.); to “GTCCTCGTTCTTTTGTGCTGGTGATTCCCAAACTGTTAAACGGAGTCACCTAGTGCAG”, 8030 fluorescence intensity (a.u.).
To “ATCATCCCGTCTCCGTCCTCGCCCGCCGCCGCCGCCGCCGCGGAGTCACCTAGTGCAG” belongs 9190 fluorescence intensity (a.u.); to “CTCTCTCTCTCTCTCTCTCTCTCTCTCTTCTCCTTTCCCTCGGAGTCACCTAGTGCAG”, 9960 fluorescence intensity (a.u.).
In the case of “AATCTTTCAATCTTCTTCACTCTTCAGTTTCTTTCATTCTCGGAGTCACCTAGTGCAG” it was 9060 fluorescence intensity (a.u.); in that of “CAACATACAGGGAGTTTTTACCGGCCGCCCTCTACTCTCACGGAGTCACCTAGTGCAG”, 9800 fluorescence intensity (a.u.); in that of “ATCCACGTCATCCATGACATGGCCTCAATGTTTTCACACACGGAGTCACCTAGTGCAG”, 10400 fluorescence intensity (a.u.).
In the case of “TTATTGGTAAATTTCACTTTGCTCATTTTTTTTATCATCGCGGAGTCACCTAGTGCAG”, the binding signal was 8730 fluorescence intensity (a.u.).
To “CTCTCTCTCTCTCTTCCTCACTCTCACTGTCTCACTGTCTCGGAGTCACCTAGTGCAG” belongs 10600 fluorescence intensity (a.u.); to “GATCTTGAGCCTGCGTGGCATTGCTGTTAGTCTCACACTCCGGAGTCACCTAGTGCAG”, 10500 fluorescence intensity (a.u.); to “TCCGTGGCGATTCTCATCCACGAGTTCGTCGTTTTTTTTTCGGAGTCACCTAGTGCAG”, 8150 fluorescence intensity (a.u.).
To “TCCCTATATGTACGATCCAATTCCTCTTTCTCCGTTTCAACGGAGTCACCTAGTGCAG” belongs 12000 fluorescence intensity (a.u.).
Take “CTTGGCTGATTCCTTTTCTTCTCGATCGATCCCGTTATTCCGGAGTCACCTAGTGCAG”: the binding signal is 8540 fluorescence intensity (a.u.).
To “ATTTTCATTTTTTTTGTTATTTTTAGTGGTGCAAAAGCCACGGAGTCACCTAGTGCAG” belongs 9060 fluorescence intensity (a.u.); to “TATTACTCTATCTCAAATCCATGCTACAAATCATACGCATCGGAGTCACCTAGTGCAG”, 8550 fluorescence intensity (a.u.).
To “CCACAATGATCAGCCCACATGTGCCTTGCACAGTATTGTACGGAGTCACCTAGTGCAG” belongs 8130 fluorescence intensity (a.u.); to “TAACAGCTCTCTTCTGCAATCTGCATTGCCCTCTCTGTTCCGGAGTCACCTAGTGCAG”, 12200 fluorescence intensity (a.u.).
